Data from PubChem BioAssay AID493014 (National Center for Advancing Translational Sciences (NCATS), 2011).
The other results are listed elsewhere or left out. Shown are side measurements of this screen, not its main read-out; they come without a call. Most of these compounds were active or inconclusive in the main read-out, so they are no random draw. Potencies come from curve fits of mixed quality, noted in brackets.

Test: qHTS Assay to Find Inhibitors of Chronic Active B-Cell Receptor Signaling
Conditions: ABC-DLBCL IkBa-CBG/CBR reporter, luminescence ratio (green luciferase fused to IkBa over red control in TMD8 lymphoma cells), 4 h
Procedure, shortened: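 Cell line TMD8 (human ABC DLBCL), stably expressing tet-inducible CBG68-IkBa fusion and CBR; IMDM/0.5% FBS; cpd up to 46 uM; dox induction, 4 h, 37C/5% CO2; dual luminescence; green/red ratio; MG132 control.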

[1] = measured here: CBR red luminescence, cell number

Compound	AC50 [1]	AC50 (measured here: IkBa-CBG green luminescence)
CCOC(=O)N(CC)OC(=O)Nc1ccc(Cl)cc1	0.291 µM [rising, partial curve, poor fit]	–
Nc1ccc(OCc2ccco2)cc1	6.31 µM [rising, partial curve, poor fit]	–
CCOC(=O)C1CCN(C(=O)c2cc3c(ccc4ccccc43)o2)CC1	4.47 µM [falling, partial curve, poor fit]	–
O=C(NCCc1c[nH]c2ccccc12)C(=O)Nc1ccccc1	11.2 µM [falling, partial curve]	–
COc1ccccc1C(C)NC(=O)Cc1ccsc1 (centres undefined)	31.6 µM [rising, single point]	–
COc1ccc(C)cc1NC(=O)CCCN1C(=O)NC(C)(C)C1=O	29.1 µM [rising, single point]	–
N#Cc1ccc(-c2ccc(OCC(O)CN3CCOCC3)cc2)cc1 (centres undefined)	3.55 µM [rising, full curve, poor fit]	–
CCc1cc(=O)oc2c(CN3CCCC3)c(O)c(Cl)cc12	29.1 µM [falling, single point]	–
N#C/C(=C\c1cn(Cc2cccc(F)c2)c2ccccc12)C(=O)NCc1ccco1	29.1 µM [rising, single point]	–
CN(C)c1cc2c(cc1NC(=O)c1ccccc1Cl)n(C)c(=O)n2C	0.316 µM [rising, full curve, poor fit]	–
Cc1nc2nc(-c3ccccc3)[nH]n2c(=O)c1Cc1ccccc1	3.26 µM [falling, full curve, poor fit]	–
O=C(c1ccccc1[N+](=O)[O-])N1N=C(c2ccccc2)CC1(O)C(F)(F)F (centres undefined)	17.8 µM [falling, single point]	–
Fc1cccc(NC(=S)NNc2c3ccccc3nc3ccccc23)c1	14.1 µM [falling, partial curve, poor fit]	35.5 µM [rising, partial curve, poor fit]
O=C(/C=C/Nc1ccc(Br)cc1F)c1ccccc1	3.26 µM [falling, full curve]	–
Cc1cc(Oc2ccc(C#N)cc2)nc(NCc2ccccc2)n1	0.794 µM [rising, full curve, poor fit]	–
COc1ccc(N2CCN(C(=O)COC(=O)c3ccccc3OCc3ccc(F)cc3)CC2)cc1	5.8 µM [rising, single point]	–
O=C(Nc1ccc(F)cc1F)N1CCC(c2nc3ccccc3o2)CC1	3.16 µM [rising, partial curve, poor fit]	–
COc1cc(C(=O)NCC(c2cccs2)N2CCOCC2)cc(Br)c1OCc1ccccc1 (centres undefined)	23.1 µM [falling, single point]	–

Taken from above:
AC50 [1] with CN(C)c1cc2c(cc1NC(=O)c1ccccc1Cl)n(C)c(=O)n2C reads 0.316 µM [rising, full curve, poor fit]
AC50 [1] with CCOC(=O)C1CCN(C(=O)c2cc3c(ccc4ccccc43)o2)CC1 reads 4.47 µM [falling, partial curve, poor fit]
